For one substance, binding results are on record in PMC7939391, “[4Fe-4S] cluster trafficking mediated by Arabidopsis mitochondrial ISCA and NFU proteins” (The Journal of Biological Chemistry, 2021).

Sequences of proteins named here, by UniProt entry; tags and fusion partners are left off. A change or cut given only in a name is not applied to a line headed by its entry.
UniProt Q8LBM4: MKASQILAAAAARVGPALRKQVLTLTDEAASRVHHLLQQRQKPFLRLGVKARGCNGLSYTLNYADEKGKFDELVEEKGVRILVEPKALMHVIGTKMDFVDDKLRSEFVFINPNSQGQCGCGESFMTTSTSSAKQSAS
UniProt Q8LCY2: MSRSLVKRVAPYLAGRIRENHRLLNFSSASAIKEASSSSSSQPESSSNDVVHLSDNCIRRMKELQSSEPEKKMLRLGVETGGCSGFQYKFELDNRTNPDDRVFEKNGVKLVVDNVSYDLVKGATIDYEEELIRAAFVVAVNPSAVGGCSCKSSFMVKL

This assay has as its target recombinant Arabidopsis ISCA1a, coexpressed with ISCA2 (Arabidopsis thaliana) (UniProt Q8LBM4). Put plainly: co-expression and co-purification; ISCA1a and ISCA2 coexpressed in E. coli BL21 (DE3) from one pCDF-Duet plasmid and purified together as a [2Fe-2S] cluster-containing heterocomplex; after reconstitution eluted from Q-Sepharose as a single colored fraction.

Results are given in words; binding and its absence hold for the method and conditions named. Binding seen in cells or lysates may run through a third protein. A result given as binding can be weak or reduced; the word gives no strength.

In the case of “recombinant Arabidopsis ISCA2, coexpressed with ISCA1a (from UniProt Q8LCY2)”, the binding result is “binds”.
